Reference: publication doi:10.1101/808782
Results are given in words; binding and its absence hold for the method and conditions named. In cells and extracts the contact can be indirect. A yes stands for co-enrichment or nearness to the bait. Other partners may have been found.

Protein sequences, listed by entry. Tags and fused reporters are not part of them. Lines headed by an entry give the natural chain unless they say otherwise; changes in a name come on top.
UniProt P60953: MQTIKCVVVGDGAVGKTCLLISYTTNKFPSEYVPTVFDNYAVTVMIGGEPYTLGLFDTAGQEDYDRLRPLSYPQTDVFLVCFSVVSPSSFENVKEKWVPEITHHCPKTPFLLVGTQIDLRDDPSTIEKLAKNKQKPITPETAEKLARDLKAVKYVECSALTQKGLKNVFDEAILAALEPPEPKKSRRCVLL
UniProt Q86VI3: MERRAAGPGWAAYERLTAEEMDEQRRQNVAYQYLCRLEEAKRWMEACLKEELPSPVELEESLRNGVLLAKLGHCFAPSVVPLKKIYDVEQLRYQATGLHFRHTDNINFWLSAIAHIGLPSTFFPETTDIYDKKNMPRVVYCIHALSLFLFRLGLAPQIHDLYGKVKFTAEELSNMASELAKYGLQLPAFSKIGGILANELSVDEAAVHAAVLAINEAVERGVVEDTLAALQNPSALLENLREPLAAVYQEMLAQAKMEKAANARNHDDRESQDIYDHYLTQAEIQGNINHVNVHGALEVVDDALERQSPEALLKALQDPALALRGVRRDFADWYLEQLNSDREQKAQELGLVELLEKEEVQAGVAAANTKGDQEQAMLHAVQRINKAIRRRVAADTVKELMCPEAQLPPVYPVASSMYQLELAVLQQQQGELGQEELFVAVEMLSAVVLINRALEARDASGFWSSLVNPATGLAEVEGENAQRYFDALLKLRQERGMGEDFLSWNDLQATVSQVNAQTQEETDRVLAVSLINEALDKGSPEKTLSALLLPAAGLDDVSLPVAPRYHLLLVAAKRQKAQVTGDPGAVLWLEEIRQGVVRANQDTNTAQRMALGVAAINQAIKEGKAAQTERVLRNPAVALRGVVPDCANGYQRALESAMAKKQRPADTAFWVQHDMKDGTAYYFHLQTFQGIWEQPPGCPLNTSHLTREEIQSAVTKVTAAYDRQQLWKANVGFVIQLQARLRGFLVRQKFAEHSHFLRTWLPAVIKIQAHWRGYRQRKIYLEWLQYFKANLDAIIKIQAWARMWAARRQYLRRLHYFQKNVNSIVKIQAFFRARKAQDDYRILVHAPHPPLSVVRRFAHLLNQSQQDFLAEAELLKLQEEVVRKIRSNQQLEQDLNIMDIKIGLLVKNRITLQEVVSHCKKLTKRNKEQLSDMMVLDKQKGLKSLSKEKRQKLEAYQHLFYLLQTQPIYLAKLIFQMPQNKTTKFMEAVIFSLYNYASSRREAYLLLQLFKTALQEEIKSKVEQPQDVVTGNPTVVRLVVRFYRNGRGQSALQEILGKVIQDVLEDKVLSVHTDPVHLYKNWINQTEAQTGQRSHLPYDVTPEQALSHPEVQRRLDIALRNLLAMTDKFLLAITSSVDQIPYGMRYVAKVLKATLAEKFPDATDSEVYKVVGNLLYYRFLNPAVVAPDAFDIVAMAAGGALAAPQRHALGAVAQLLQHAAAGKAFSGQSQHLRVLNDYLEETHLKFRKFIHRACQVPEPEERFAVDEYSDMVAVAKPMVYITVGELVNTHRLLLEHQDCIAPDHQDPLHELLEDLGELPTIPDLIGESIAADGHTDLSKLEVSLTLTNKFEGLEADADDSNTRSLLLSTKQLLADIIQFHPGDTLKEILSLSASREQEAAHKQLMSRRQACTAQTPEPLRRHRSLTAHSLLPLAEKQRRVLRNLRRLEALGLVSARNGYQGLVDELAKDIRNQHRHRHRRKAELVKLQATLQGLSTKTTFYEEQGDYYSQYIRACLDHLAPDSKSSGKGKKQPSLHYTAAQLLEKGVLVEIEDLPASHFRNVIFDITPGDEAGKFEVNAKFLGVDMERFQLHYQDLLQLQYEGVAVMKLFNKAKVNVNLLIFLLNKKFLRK
UniProt Q96GI7: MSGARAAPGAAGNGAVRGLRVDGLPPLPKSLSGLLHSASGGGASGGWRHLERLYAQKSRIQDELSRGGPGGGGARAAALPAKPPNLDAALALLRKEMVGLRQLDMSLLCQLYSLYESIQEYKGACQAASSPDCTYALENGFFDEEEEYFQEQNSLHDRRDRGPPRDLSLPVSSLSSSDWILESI
UniProt P46940: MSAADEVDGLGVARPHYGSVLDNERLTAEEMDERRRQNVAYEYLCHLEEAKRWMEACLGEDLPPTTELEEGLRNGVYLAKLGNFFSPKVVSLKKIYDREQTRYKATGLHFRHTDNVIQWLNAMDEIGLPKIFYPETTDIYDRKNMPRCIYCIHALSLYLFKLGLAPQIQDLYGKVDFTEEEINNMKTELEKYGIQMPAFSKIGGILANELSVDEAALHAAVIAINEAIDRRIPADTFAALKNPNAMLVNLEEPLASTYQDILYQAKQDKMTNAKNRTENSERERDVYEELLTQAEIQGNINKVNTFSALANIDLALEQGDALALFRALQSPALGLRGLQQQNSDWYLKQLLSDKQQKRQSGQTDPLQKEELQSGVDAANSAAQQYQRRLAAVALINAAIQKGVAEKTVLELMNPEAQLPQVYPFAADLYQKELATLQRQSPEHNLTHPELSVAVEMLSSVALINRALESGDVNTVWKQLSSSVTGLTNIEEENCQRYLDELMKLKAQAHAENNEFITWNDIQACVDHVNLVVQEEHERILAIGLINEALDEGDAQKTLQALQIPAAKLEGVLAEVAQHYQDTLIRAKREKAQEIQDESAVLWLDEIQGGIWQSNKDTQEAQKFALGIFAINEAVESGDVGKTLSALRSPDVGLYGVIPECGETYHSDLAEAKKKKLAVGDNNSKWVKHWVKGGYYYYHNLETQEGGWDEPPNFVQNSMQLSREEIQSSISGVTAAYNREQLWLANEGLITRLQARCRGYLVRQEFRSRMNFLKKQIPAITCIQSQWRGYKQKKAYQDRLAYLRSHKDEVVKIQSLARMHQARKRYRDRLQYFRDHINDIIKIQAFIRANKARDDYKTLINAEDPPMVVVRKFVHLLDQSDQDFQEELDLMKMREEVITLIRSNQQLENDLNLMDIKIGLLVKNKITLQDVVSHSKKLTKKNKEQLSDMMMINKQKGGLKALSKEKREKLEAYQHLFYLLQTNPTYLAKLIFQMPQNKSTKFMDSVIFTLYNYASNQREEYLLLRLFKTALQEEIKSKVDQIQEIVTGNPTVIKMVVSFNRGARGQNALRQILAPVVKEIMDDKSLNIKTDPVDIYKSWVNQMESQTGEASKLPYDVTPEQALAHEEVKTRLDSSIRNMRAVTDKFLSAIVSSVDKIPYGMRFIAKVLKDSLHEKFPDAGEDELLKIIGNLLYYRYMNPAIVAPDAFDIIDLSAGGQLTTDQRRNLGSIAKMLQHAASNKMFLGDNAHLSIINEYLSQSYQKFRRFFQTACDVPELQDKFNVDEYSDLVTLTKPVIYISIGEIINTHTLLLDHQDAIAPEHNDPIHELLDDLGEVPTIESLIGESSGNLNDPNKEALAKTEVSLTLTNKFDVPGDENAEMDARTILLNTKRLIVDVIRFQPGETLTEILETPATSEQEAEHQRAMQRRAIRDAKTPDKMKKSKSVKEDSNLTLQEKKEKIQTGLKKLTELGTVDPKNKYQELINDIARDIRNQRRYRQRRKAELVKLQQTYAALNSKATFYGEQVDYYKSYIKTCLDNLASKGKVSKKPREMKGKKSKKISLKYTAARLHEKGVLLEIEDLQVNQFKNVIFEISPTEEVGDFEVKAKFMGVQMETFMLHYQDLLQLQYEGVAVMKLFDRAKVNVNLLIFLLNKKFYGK
UniProt P60660: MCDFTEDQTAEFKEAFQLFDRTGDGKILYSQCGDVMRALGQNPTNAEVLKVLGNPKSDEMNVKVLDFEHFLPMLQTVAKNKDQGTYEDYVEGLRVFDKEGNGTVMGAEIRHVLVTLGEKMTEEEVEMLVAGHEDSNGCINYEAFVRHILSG

Key:
[1] = biological target: GFP-tagged wild-type Cdc42 (human) (UniProt P60953); assay: affinity purification with mass spectrometry
[2] = biological target: GFP-tagged Cdc42 R186C (human) (UniProt P60953); assay: affinity purification with mass spectrometry

Row | Molecule | binding [1] | binding [2]
1 | IQGAP3 (from UniProt Q86VI3 1-1631) | binds | binds
2 | partner encoded by the FAM89A gene (from UniProt Q96GI7 1-184) | binds | binds
3 | partner encoded by the FIGNL2 gene (protein, UniProt A6NMB9 1-653) MHWTPEHAQPLNQWPEQHLDVSSTTPSPAHKLELPPGGRQRCHYAWAHDDISALTASNLLKRYAEKYSGVLDSPYERPALGGYSDASFLNGAKGDPEPWPGPEPPYPLASLHEGLPGTKSGGGGGSGALGGSPVLAGNLPEPLYAGNACGGPSAAPEYAAGYGGGYLAPGYCAQTGAALPPPPPAALLQPPPPPGYGPSAPLYNYPAGGYAAQPGYGALPPPPGPPPAPYLTPGLPAPTPLPAPAPPTAYGFPTAAPGAESGLSLKRKAADEGPEGRYRKYAYEPAKAPVADGASYPAADNGECRGNGFRAKPPGAAEEASGKYGGGVPLKVLGSPVYGPQLEPFEKFPERAPAPRGGFAVPSGETPKGVDPGALELVTSKMVDCGPPVQWADVAGQGALKAALEEELVWPLLRPPAYPGSLRPPRTVLLFGPRGAGKALLGRCLATQLGATLLRLRGATLAAPGAAEGARLLQAAFAAARCRPPSVLLISELEALLPARDDGAAAGGALQVPLLACLDGGCGAGADGVLVVGTTSRPAALDEATRRRFSLRFYVALPDSPARGQILQRALAQQGCALSERELAALVQGTQGFSGGELGQLCQQAAAGAGLPGLQRPLSYKDLEAALAKVGPRASAKELDSFVEWDKMYGSGH | binds | binds

Continued, values first:

Row | binding [1] | binding [2] | Molecule
4 | – | binds | partner encoded by the IQGAP1 gene (from UniProt P46940 1-1657)
5 | binds | binds | partner encoded by the MYL6 gene (from UniProt P60660 1-151)
